The source of these data is publication PMC11379392.

The chains behind the UniProt entries cited, without tags or fusion partners.
UniProt Q2HR95: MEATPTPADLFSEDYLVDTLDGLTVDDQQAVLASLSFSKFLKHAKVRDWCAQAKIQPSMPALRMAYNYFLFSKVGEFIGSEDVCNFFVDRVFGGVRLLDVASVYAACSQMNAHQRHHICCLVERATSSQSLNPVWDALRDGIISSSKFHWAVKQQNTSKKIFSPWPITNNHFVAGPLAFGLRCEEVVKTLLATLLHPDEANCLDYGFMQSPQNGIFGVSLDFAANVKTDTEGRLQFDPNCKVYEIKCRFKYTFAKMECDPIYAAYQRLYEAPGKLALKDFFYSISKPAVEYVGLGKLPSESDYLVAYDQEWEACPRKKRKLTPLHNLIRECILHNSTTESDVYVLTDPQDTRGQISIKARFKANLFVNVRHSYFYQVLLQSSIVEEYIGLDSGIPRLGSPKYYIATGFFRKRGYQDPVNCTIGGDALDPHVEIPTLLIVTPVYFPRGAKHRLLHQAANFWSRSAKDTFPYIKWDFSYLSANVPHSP
UniProt Q86WV6: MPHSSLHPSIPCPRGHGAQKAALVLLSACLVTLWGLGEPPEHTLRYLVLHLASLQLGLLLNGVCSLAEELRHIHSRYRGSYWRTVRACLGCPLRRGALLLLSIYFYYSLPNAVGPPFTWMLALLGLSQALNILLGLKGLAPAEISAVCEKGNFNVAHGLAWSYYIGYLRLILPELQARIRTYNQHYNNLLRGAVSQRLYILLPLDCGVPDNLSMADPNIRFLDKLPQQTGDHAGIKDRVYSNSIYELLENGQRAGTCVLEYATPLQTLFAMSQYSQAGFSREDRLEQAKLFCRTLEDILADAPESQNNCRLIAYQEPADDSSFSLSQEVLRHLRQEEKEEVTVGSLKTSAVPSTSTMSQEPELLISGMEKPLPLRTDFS

This experiment deals with STREP-ORF37 (KSHV ORF37, from pCDNA4.TO-ORF37-2xCSTREP) (Kaposi's sarcoma-associated herpesvirus (KSHV)) (UniProt Q2HR95). The experiment can be described thus: co-IP; HEK293T cells co-transfected with HA-STING and STREP-tagged ORFs, 48 h; lysates immunoprecipitated with STREP antibody and protein A/G beads; blots with HA or STREP antibodies.

These are yes or no findings as the source states them, for the method shown. In cells and extracts the contact can be indirect.

On to HA-STING (from UniProt Q86WV6 1-379), for which the binding entry is given as “no binding”.
